Measurements taken from PubChem BioAssay AID1794845 (National Center for Advancing Translational Sciences (NCATS), 2023).
In all, about 6,900 compounds went through this assay and fewer than 10 were called active. The call rests on the fitted dose curve; in most records, active means well fitted curve in the direction sought with a large enough effect; inconclusive means small, poorly fitted or top-dose-only effect, or another doubt; inactive means no such curve, though single readings can be large or run the other way. Some of the results follow.

Chains of the proteins cited; added tags and fusions are not shown. Lines headed by an entry give the natural chain unless they say otherwise; changes in a name come on top.
UniProt C7C422: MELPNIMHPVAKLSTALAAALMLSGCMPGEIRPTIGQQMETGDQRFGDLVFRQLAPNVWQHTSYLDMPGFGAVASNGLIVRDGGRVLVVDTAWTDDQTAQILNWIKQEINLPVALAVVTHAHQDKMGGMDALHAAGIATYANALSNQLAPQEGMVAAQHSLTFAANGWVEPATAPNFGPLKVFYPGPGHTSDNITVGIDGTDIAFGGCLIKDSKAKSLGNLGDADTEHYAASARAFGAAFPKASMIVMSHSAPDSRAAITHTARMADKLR

Target: Metallo-beta-lactamase type 2 (Klebsiella pneumoniae) (UniProt C7C422)
Experiment: qHTS to identify inhibitors of the New Delhi Metallo-beta-lactamase (NDM): primary screen against the NCATS Gemini Collection; further: % of control where 0% means no effect
Details: NDM-1 enzyme, meropenem hydrolysis, absorbance 300 nm; at 38.4 µM (top of the series) unless noted
How it was run: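 NDM-1 at 2 nM final in 50 mM HEPES pH 7.0, 1 uM ZnSO4, 0.01% Tween20, preincubated >30 min with compound. Meropenem 50 uM final added; absorbance at 300 nm after 30 min.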

Row | SMILES | activity % (negative = inhibition)
1 | Cc1ncc2n1C(=O)N(C1CCN(C(=O)NC3CCCC3)CC1)C2 | inactive: -4.48% [at 57.5 µM]
2 | O=C(N[C@@H]1CN(C(=O)Nc2ccc(F)cc2)CCC[C@H]1O)c1ccc(OCCN2CCCC2)cc1 | inactive: 18.9%
3 | CNC(=O)c1[nH]nc2c1C(c1cc(OC)ccc1-n1cccn1)CC(=O)N2 (stereo not drawn) | inactive: -4.76%
4 | CN1CCCC2(C1)CN(C)c1ccc(C(=O)NCC3CCCCC3)cc12 (stereo not drawn) | inactive: 13% [at 57.5 µM]
5 | Cc1noc(C)c1S(=O)(=O)N1CC(C(=O)NC2CCCCC2)C2(CCOCC2)C1 (stereo not drawn) | inactive: -6.52%
6 | O=C(NC1CCCCC1)[C@@H]1C[C@@H](O)CN1C1CCN(C(=O)c2ccccc2F)CC1 | inactive: 0.659%
7 | CCc1nccn1Cc1nnc(C2CC(N)C2)n1CCOC (stereo not drawn) | inactive: 1.49%
8 | O=C(NCCNC(=O)c1ccccc1F)c1ccc(-c2cncnc2)cc1 | inactive: 1.93%
9 | CCN1c2cc(C(=O)NCc3ccncc3)ccc2C(=O)N2CCCCC21 (stereo not drawn) | inactive: -12.3%
10 | Cc1cc(C(=O)NC[C@@H]2OC[C@@]3(C)[C@H]4CC[C@@H](O)[C@@H](CC(=O)N5CCCC5)[C@]4(C)CC[C@H]3O2)no1 | inactive: 8.32%
11 | Cc1ccc(OC(C)c2nc(-c3cccnn3)no2)cc1C (stereo not drawn) | inactive: -4.27%
12 | Fc1ccccc1CN1CCCC2(CCN(c3cnccn3)C2)C1 (stereo not drawn) | inactive: -2.42%
13 | CN1C[C@@H](NC(=O)CC(C)(C)CC(=O)O)C[C@H]1c1nc(-c2ccccn2)no1 | inactive: 10.1% [at 57.5 µM]
14 | Cc1ccc(CN2CCCCCCNC(=O)[C@@H]3C[C@@H](C(=O)NCCc4cnc[nH]4)C[C@@H]32)o1 | inactive: -2.22%
15 | CCN1CCC(N2CCC3(CC2)CC2C(=O)N(CC)C(=O)N2C3)CC1 (stereo not drawn) | inactive: 16.5%
16 | CCC(=O)N1CCc2sc(C(=O)N3CCN(c4cccc(Cl)c4)CC3)cc2C1 | inactive: -0.0197%
17 | O=C(Nc1ccccc1)NC1CCN(CCn2nc3n(c2=O)CCCC3)C1 (stereo not drawn) | inactive: 5.55%
18 | Cc1ccc(CN2CCC([C@@H]3CNC[C@H]3CO)CC2)s1 | inactive: 45.9%
19 | COc1cccc(CCNC(=O)c2c(C)noc2-c2ccco2)c1 | inactive: 5.94%
20 | COCc1noc([C@@H]2CN(C(=O)C3CC=CCC3)C[C@H]2C(N)=O)n1 (stereo partly drawn) | inactive: -0.867%
21 | O=C1CCN(C(=O)CCc2nc3ccccc3s2)CCCCCCN1 | inactive: 23.1%
22 | Cc1nc(-c2cn(C3CCCN(C(=O)c4ccc(Cl)s4)C3)nn2)no1 (stereo not drawn) | inactive: 3.08%
23 | O=C(C1CCCC1)N1CC2(CCN(Cc3ccc(Cl)cc3)C2)Cc2ccccc21 (stereo not drawn) | inactive: -3.84%
24 | CCCN1CCC(N2C[C@H]3OC(=O)N(CCc4cccc(Cl)c4)[C@H]3C2)CC1 | inactive: 15.5%
25 | CCc1cccc(-n2nnnc2N2CCN(C(=O)Cc3ccc(C)c(F)c3)CC2)c1 | inactive: 0.125%
26 | COc1ccc(OC)c(-c2cc(Cl)c3c(c2)CC(CNC(=O)c2c(F)cccc2F)O3)c1 (stereo not drawn) | inactive: 0.991%
27 | CN(C)c1cccc(-c2cnc(Nc3cnccn3)c3c2CCO3)c1 | inactive: -0.306% [at 57.5 µM]

Row | SMILES | activity % (negative = inhibition)
28 | Cc1cc2ncc(C(=O)NC(C)CCc3ccccc3)cn2n1 (stereo not drawn) | inactive: 8.7% [at 57.5 µM]
29 | COCc1cc(C[C@@H]2CC[C@H](O)[C@@H](CNCc3ccc(Cl)cc3)O2)no1 | inactive: 32.3% [at 57.5 µM]
30 | O=C(c1ccccc1OCC1CCCNC1)N1CCOCC1 (stereo not drawn) | inactive: 42.4%
31 | COc1ccccc1CCN1CCCC(CN(C)C(=O)CN2C(=O)CNC2=O)C1 (stereo not drawn) | inactive: 4.05%
32 | CCn1ccnc1CNC(=O)c1cc(OC)ccc1OC1CCN(C(=O)C2CC2)CC1 | inactive: 29%
33 | Cc1ccccc1-c1cnc2[nH]cc(CC(=O)N3CCOCC3)c2c1 | inactive: 12.1% [at 57.5 µM]
34 | O=C(C[C@@H]1C[C@H]2O[C@H](CNC3CCOCC3)[C@@H](O)[C@H]2O1)N1CCC(F)(F)C1 | inactive: 4.71% [at 57.5 µM]
35 | CNC(=O)N1CCC(C2CCN(C(=O)c3cnn(C)c3)C2)CC1 (stereo not drawn) | inactive: 50.7%
36 | COc1ccc2cc1Nc1ccc(cc1)C[C@H](NCc1ccc(C)o1)C(=O)N(C)[C@H](C(=O)NCCC(C)C)C2 | inactive: 4.93%
37 | Cc1nnnn1CC(=O)N1CCCC(c2ccccc2)(c2ccccc2)C1 | inactive: 4.78%
38 | CC#CC(=O)N1CCCC(C(=O)Nc2ccc(-c3cccc(OC)c3)cc2)C1 (stereo not drawn) | inactive: 13.9%
39 | O=C(N[C@H]1C[C@@H](CO)N(CC2CCCCC2)C1)c1cccnc1 | inactive: 0.266%
40 | CN(C)C[C@H]1O[C@H](Cc2cc(CN(C)Cc3ccccc3)on2)CC[C@@H]1O | inactive: -1.96% [at 57.5 µM]
41 | COC(=O)N(C)Cc1cccc(N2CCN(S(=O)(=O)c3cccc4ccccc34)CC2)c1F | inactive: 23.6%
42 | COc1ccc2c(C)c(C(=O)N3CCCCC3c3cc(C)on3)oc2c1 (stereo not drawn) | inactive: 54.4%
43 | CCOc1ccc(N(CC)C(=O)c2ccc3c(c2)N(S(C)(=O)=O)CC3)cc1 | inactive: 0.156%
44 | COCCN(Cc1nccs1)Cc1cn[nH]c1-c1ccc(F)cc1 | inactive: 29.8%
45 | O=C(c1ccc(Br)o1)N1C[C@@H](CO)[C@H](c2ccncc2)C1 | inactive: -3.66%
46 | COc1cccc(C(=O)N2CCC(C(NC(=O)CC(C)C)C(=O)NCC(C)C)CC2)c1 (stereo not drawn) | inactive: -2.17%
47 | CCOC(=O)N1CCC(NC)CC1 | inactive: 14.2% [at 57.5 µM]
48 | O[C@H]1[C@H](NCc2ccco2)[C@H]2CO[C@H](O2)[C@@H]1N1CCC(Cc2ccccc2)CC1 | inactive: -4.57% [at 57.5 µM]
49 | c1csc(CN2CCC(Oc3ccccc3-c3nc(-c4cnccn4)no3)C2)c1 (stereo not drawn) | inactive: 3.44%
50 | Cc1ccc(-c2cc(N3CCCN(C(=O)c4ccccc4F)CC3)n[nH]2)cc1C | inactive: 10.7%
51 | CN1CCN(C(=O)C2CCCCC(=O)N2)CC1 (stereo not drawn) | inactive: 18.1%
52 | O=C(NCc1ccc(F)cc1)c1nc2sccn2c1Br | inactive: -1.31%
53 | O=C(COc1ccccc1)NCC1CCCCC(=O)N1 (stereo not drawn) | inactive: -0.178%

Four records picked at random from the list so far, as already listed:
Row | SMILES | activity % (negative = inhibition)
34 | O=C(C[C@@H]1C[C@H]2O[C@H](CNC3CCOCC3)[C@@H](O)[C@H]2O1)N1CCC(F)(F)C1 | inactive: 4.71% [at 57.5 µM]
45 | O=C(c1ccc(Br)o1)N1C[C@@H](CO)[C@H](c2ccncc2)C1 | inactive: -3.66%
48 | O[C@H]1[C@H](NCc2ccco2)[C@H]2CO[C@H](O2)[C@@H]1N1CCC(Cc2ccccc2)CC1 | inactive: -4.57% [at 57.5 µM]
51 | CN1CCN(C(=O)C2CCCCC(=O)N2)CC1 (stereo not drawn) | inactive: 18.1%
